# Results from one PubChem assay

Source: PubChem BioAssay AID1159506 (NCATS, 2015).

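Genome-wide siRNA knockdown in TC32 Ewing sarcoma cells, comparing luciferase light from an NR0B1-promoter reporter with a CMV-promoter reporter 48 hours after transfection.
Each siRNA was applied at 20 nM.
A z-score of the log NR0B1-over-CMV signal, less the median of siRNAs with the same seed; more negative means a stronger specific loss of the NR0B1 reporter.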

This is part of the screen; most of the strongest results are not listed here.
Sequences are the guide (antisense) strand, without overhang.

| siRNA | gene | seed-corrected z-score |
|---|---|---|
| `UGCUGAACGACACCAAAGG` | NDP | -0.2503 |
| `UACUUAUCCAUCGAACUAG` | PTPN13 | -1.286 |
| `AUUAAGCUGAUUAUCAUCC` | CCDC162P | 2.466 |
| `ACAUUGAUGCGAGUGAUCC` | PSD | -0.8222 |
| `UUCUUGUUGGGCGGGAUGG` | ID4 | -0.1504 |
| `UAUCCCGCGAUGUCAAUCU` | PDPR | 0.04364 |
| `AUCUGGACUAUGGUAUUCC` | TAB3 | 0.7826 |
| `AUGAUGUCUAGGUAAAUGU` | FAIM2 | -0.5437 |
| `UUAUUGAUUUCUCUAGUAC` | RAD54B | 0.2245 |
| `UAAGGUUCACGUCGCUCAG` | TSKU | -1.931 |
| `UCCAGCAAAAGAUACACUG` | HCAR1 | 0.22 |
| `UAUCUGAUAAACCGCUCUG` | DPY19L3 | -0.1699 |
| `UCAGUGCCCAUAAAAUCGA` | SEMA3F | 0.8877 |
| `AGUAAGAUAAUAUGUAGGC` | LOC441907 | 0.325 |
| `UUGUUUUCUCGAAUCCUGU` | DAPL1 | 1.11 |
| `UAGUUCAUUGAGCAACUCC` | PUS10 | 0.3164 |
| `UCUUCAACUUGUCUUUUGU` | TMPO | 0.2623 |
| `GGGCGUGAUGAUGAUGUCG` | C16orf74 | -0.6839 |
| `AGGAUUUUGAAUUCUAUGG` | BCL2L14 | 0.5921 |
| `UUCAUAUGCAUCUUCCGGC` | DYNC1LI2 | 0.7292 |
| `GUCCGAAUAAAUAUGGGAA` | AMH | 0.03868 |
| `UUAGUGGAGUGGGAUAUGC` | CGA | 0.02477 |
| `UGAGUAAUGAUCAUCAUUG` | MBOAT2 | -0.623 |
| `UACAUUAGUCUGUCUGUCC` | FOXJ1 | 1.204 |
| `UCCUCAACAAUUACUAUCC` | CNTN5 | 1.075 |
| `UUUGUAUCCCAGGAAUGCC` | OR51I1 | -1.115 |
| `UUACUGGAGAUAUACCGCC` | LRBA | -1.345 |
| `UCUGUAUAAGGUAAUUCUC` | PDCD5 | 0.2165 |
| `UUUAGUGUCCUGGUACUGC` | MSN | 0.2255 |
| `AUGGUGAUGAUCACUCCGC` | ATP6V0E2 | 1.677 |
| `UCUUGGAAUGGGAACAGCG` | FIGF | 0.536 |
| `UAAUACACAAACUAAAUGA` | PRRX2 | 0.4921 |
| `UUCUUCUGAAUUUGGGUCC` | ANKRA2 | -0.4059 |
| `UUCAGAGCACAAAAGUUUU` | LOC643997 | -0.08994 |
| `CAACUGUCAUCGUCUGCAU` | RAB5CP2 | -0.4095 |
| `UUUUCGAAGCUCUUAAGUG` | FKBP5 | 0.4098 |
| `UUCUUUAGAACGACAAACU` | KRT85 | 0.2395 |
| `UUCCUUAUCCUGUGCGUUC` | ANKRD23 | 0.2365 |
| `UACGCUUUAAGAAUCACAG` | CPED1 | 0.3334 |
| `UUUGAAAGGAGGAUCACUC` | LOC100288510 | -0.5226 |
| `UGUACUCACACUCAGACUG` | APLNR | -0.01046 |
| `UCUCAGUGUAGUAAAAGUC` | ZNF704 | -0.1836 |
| `UUGAGUACUCCCAUUCUGC` | ZNF397 | -0.295 |
| `UACUUCCUCAAUACCGAGC` | NLN | -0.6236 |
| `UAUUGUUAGCCGGUACUCC` | MORC4 | 0.943 |
| `UACUUUAGGGCAGUCCUUG` | SERAC1 | -0.04921 |
| `UGCGCAAUAAUACACGUAG` | PSAT1 | -0.0675 |
| `UAGUCUAUUGUCUGGGUCG` | CCNT1 | 0.06364 |
| `UUAAGCAAAAGGGAGCUCA` | TMEM256 | 0.1177 |
| `UCUUAUUCAAGGUAGGCUU` | WIPF1 | 0.5203 |
| `AAUGCUAGCAAUGUUUUCG` | UBAC1 | -0.9949 |
| `ACUGUAGCUACUACUGUCC` | PCDH7 | 0.3477 |
| `UUUGGGAUAUCUGAGUGGU` | ST6GAL1 | 0.3623 |
| `UUCAGUUCAAGCGUAUUGC` | MYO1E | -0.08441 |
| `UUUUCAUGAGUGAACACGG` | CCL15 | 1.518 |
| `UUCUCUAUCUCUGCAGGAC` | C11orf74 | 0.4153 |
| `UCUGCAUCCACAAAGGUCU` | CTSE | -0.7834 |
| `UCUUUGUGCUGAACAGUCC` | SLC35D1 | 0.2896 |
| `UUGUUAUCAUCUCUGCUGC` | SUB1P1 | 0.02393 |
| `UUCUCUCGAAUAGUUUGUC` | NDUFAF2 | 1.34 |
| `UAUUCGAAUGAUAUACUUG` | CLCA1 | 0.04504 |
| `UAUUCAUCCUCUUGGAACC` | ZNF502 | -0.2058 |
| `UUGUAGUUUCUUGUGGUCG` | PCF11 | 0.5634 |
| `UCUGCGGCAUGAUUAGACC` | HUWE1 | -0.2985 |
| `UAGACUGCAAGGUCGAUGC` | SLC25A25 | -0.1882 |
| `UACUGUACAGCUUGAUCUC` | SIM2 | -0.2101 |
| `UUCCCGACCACUAUCAAGG` | OSBPL3 | -0.3305 |
| `UGUCAUUAUGGGUUGAAUC` | VEPH1 | 0.1565 |
| `UUCUAGGUCAUCACCAUAC` | SNW1 | -0.1248 |
| `UACAUGACCAGUACUGAGC` | OR11G2 | -0.811 |
| `UAGGCUUCUAAAUCCUUCC` | LIN28B | -0.7104 |